PubChem BioAssay AID1508588 – Peter MacCallum Cancer Centre, 2020
Here is a random part of about 18,000 reagents tested. Over the whole deposit, 790 (4.4%) are marked active. 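Calls rest on a combination of fold-change classes in drug and vehicle arms, not all shown here.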

Test: 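Genome-wide search for knock-downs that heighten vemurafenib action in melanoma cells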 (primary screen)
Cells: human WM266.4 melanoma cells (BRAF V600 mutant)
Knock-down reagent: siRNA pool against human genes, 40 nM
Duration: 96 h from transfection to read-out
Challenge: vemurafenib 300 nM (about IC25), added 48 h after transfection, for 48 h; comparison arm got DMSO vehicle only
Read-out: 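Cell gain (DAPI nuclei at end minus before drug, mean of two replicates) and medium lactate by absorbance per cell, both as ratio to non-targeting siRNA, also grouped into fold-change classes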
Scale: cell gain with vemurafenib: higher = more cell gain than with non-targeting siRNA; lactate per cell with vemurafenib: higher = more lactate made per cell
Rule for the call: 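a knock-down counts as enhancing when its fold-change classes with vehicle and with vemurafenib, taken together, show a stronger drug effect on cell gain or lactate per cell; exact class pairs not stated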
Meaning of the calls: active = enhances vemurafenib effect; inactive = no enhancement seen

With knock-down of ZNF460 the results were cell gain with vemurafenib 0.56; lactate per cell with vemurafenib 1.1; inactive.
With knock-down of TIPARP the results were cell gain with vemurafenib 0.39; lactate per cell with vemurafenib 1.34; inactive.
Depletion of WWC3 came out at: cell gain with vemurafenib 0.13; lactate per cell with vemurafenib 0.87; inactive.
Against EDF1, the entry reads cell gain with vemurafenib 0.5; lactate per cell with vemurafenib 0.36; inactive.
For COG3, the values are cell gain with vemurafenib 0.93; lactate per cell with vemurafenib 0.83; inactive.
For PKHD1, the values are cell gain with vemurafenib 0.44; lactate per cell with vemurafenib 0.74; inactive.
With knock-down of FADD the results were cell gain with vemurafenib 0.97; lactate per cell with vemurafenib 0.7; inactive.
After knock-down of GGA2 the results were cell gain with vemurafenib 0.66; lactate per cell with vemurafenib 0.8; inactive.

Not a retest: an excerpt of the list.
EDF1: cell gain with vemurafenib = 0.5; lactate per cell with vemurafenib = 0.36; outcome = inactive
COG3: cell gain with vemurafenib = 0.93; lactate per cell with vemurafenib = 0.83; outcome = inactive

Additional results:
Silencing of FBXW12 came out at: cell gain with vemurafenib 0.65; lactate per cell with vemurafenib 1.41; inactive.
With knock-down of DNAH5 the results were cell gain with vemurafenib 0.72; lactate per cell with vemurafenib 0.57; inactive.
After knock-down of SYT14 the results were cell gain with vemurafenib 0.97; lactate per cell with vemurafenib 0.93; inactive.
With knock-down of RTP2, the screen gave cell gain with vemurafenib 0.77; lactate per cell with vemurafenib 1.38; inactive.
GCAT showed cell gain with vemurafenib 0.54; lactate per cell with vemurafenib 1.1; inactive.
Silencing of PHF6 came out at: cell gain with vemurafenib 1.16; lactate per cell with vemurafenib 0.73; inactive.
With knock-down of PAGE1, the screen gave cell gain with vemurafenib 1.06; lactate per cell with vemurafenib 1; inactive.
After knock-down of LY6E, the screen gave cell gain with vemurafenib 0.63; lactate per cell with vemurafenib 0.98; inactive.
